Measurements as given in article PMC5680235, “Identification of a peptide recognizing cerebrovascular changes in mouse models of Alzheimer’s disease” (Nature Communications, 2017).
No constants are given. Whether binding was seen depends on the method and setting. In cells and extracts the contact can be indirect. Here binding means that the protein was enriched with, or labelled near, the bait; the list need not be complete.

Sequences of proteins named here, by UniProt entry; tags and fusion partners are left off. Residues count along the entry.
UniProt P29279, residues 27-349: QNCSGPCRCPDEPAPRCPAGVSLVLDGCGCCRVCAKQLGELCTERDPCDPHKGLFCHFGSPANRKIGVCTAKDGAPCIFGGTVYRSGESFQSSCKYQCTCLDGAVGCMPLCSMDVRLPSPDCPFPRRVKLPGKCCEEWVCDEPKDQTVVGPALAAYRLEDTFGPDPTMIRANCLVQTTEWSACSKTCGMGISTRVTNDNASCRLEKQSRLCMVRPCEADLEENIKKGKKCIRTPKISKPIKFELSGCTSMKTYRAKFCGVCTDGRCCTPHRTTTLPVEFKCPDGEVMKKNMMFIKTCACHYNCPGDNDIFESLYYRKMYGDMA

Target: T1, biotin-DAG peptide on Sera-Mag magnetic particles
T1 sequence (peptide, cyclic peptide; biotin at the N-terminus): CDAGRKQKC
Experiment: affinity purification with mass spectrometry; U251 lysate (200 mM n-octyl-beta-D-glucopyranoside in PBS) on magnetic particles coated with biotin-DAG, overnight at 4 °C; washed with 0.5 mM control peptide; eluted with 1 mM free DAG; LC-MS/MS; only the target purified

In the case of “connective tissue growth factor (CTGF) of U251 cells (from UniProt P29279 27-349)”, the binding is reported as “binds”.
